PubChem BioAssay AID1259424, University of Nebraska Medical Center – 2018
Shown is one part, drawn at random, of about 14,000 reagents. 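Higher correlation or smaller distance means closer resemblance to KSR1 loss; control wells, including KSR1 knockdowns, recur on many plates.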 Not all columns of the deposit are shown. Not stated in the record: the time to read-out.

Screen: 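Rank knockdowns across the genome by resemblance to the KSR1 depletion profile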 (primary screen)
Cell system: human HCT116 colon cancer cells
Knock-down reagent: siRNA pool against human genes, 50 nM
Measured: 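Six signature mRNAs by branched-DNA multiplex assay, scaled to two housekeeping genes and non-targeting median, log2; matched to mean KSR1 knockdown profile by Pearson correlation and euclidean distance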
Direction: mean correlation with KSR1 profile and KSR1 correlation: higher = expression change more like KSR1 knockdown; mean distance from KSR1 profile: higher = expression change less like KSR1 knockdown

Target gene,mean correlation with KSR1 profile,mean distance from KSR1 profile,"KSR1 correlation, replicate 1"
RCOR3,-0.242,2.26,-0.147
MEA1,-0.343,2.62,-0.298
FOXN1,0.226,2.8,-0.278
ZNF577,0.192,3.92,0.0881
NXF3,-0.0902,2.98,-0.0117
PTPN9,-0.485,1.57,-0.241
DENND10P1,0.145,1.86,-0.281
GMPR,0.554,0.965,0.481
PTPRZ1,-0.039,1.93,-0.0243
DEK,0.212,2.24,-0.132
PTBP3,-0.193,2.45,-0.207
RHCG,-0.253,2.06,-0.0637

Records above whose gene name starts with D or d (2):
Target gene,mean correlation with KSR1 profile,mean distance from KSR1 profile,"KSR1 correlation, replicate 1"
DENND10P1,0.145,1.86,-0.281
DEK,0.212,2.24,-0.132

The list goes on:
Target gene,mean correlation with KSR1 profile,mean distance from KSR1 profile,"KSR1 correlation, replicate 1"
TOR4A,-0.625,3.09,-0.735
CFHR3,-0.511,2.19,-0.257
RHOF,-0.443,2.56,-0.451
GMFG,0.128,1.43,0.0869
KCNJ3,0.757,1.22,0.705
MARCHF6,-0.341,1.98,-0.12
ERCC3,0.0813,1.48,-0.06
FASTKD4,-0.499,4.29,-0.354
